PMC5635220
Results are given in words; binding and its absence hold for the method and conditions named. Binding seen in cells or lysates may run through a third protein. Some results given as binding are weak or reduced against the parent protein; the word gives no strength.

Target: Epidermal growth factor receptor (human (endogenous in HCT116 and HBL-100)) (UniProt P00533)
Experiment: co-IP; HCT116^MUC1Full cells treated with control or EGF 20 ng/ml for 10 min at 37 C; lysed in PBS with 1% Triton-X-100; immunoprecipitation with anti-EGFR (DB81); immunoblot with anti-galectin-3

Question: With “galectin-3 (endogenous, HCT116^MUC1Full cells) (from UniProt P17931 1-250)” as the substance, how does the binding read?
Answer: binds weakly
